Measurements taken from patent publication US20090176817A1, “Method of Treatment of Diarrhea-Predominant Irritable Bowel Syndrome in a Subject” (priority 2005, published 2009).

Test system: purified human alpha-1 acid glycoprotein (AAG)
Format: in vitro ADME
Description: Protein binding was also evaluated in an in vitro study in human, mouse, rat, and dog plasma using equilibrium dialysis (12-14K molecular weight cut-off membrane). This study measured the binding of (^14C)-cilansetron in plasma at nominal concentrations (30, 90, and 300 ng/mL) which are much higher than those encountered in vivo in humans. This study also measured the binding of (^14C)-cilansetron to purified human serum albumin at cilansetron concentrations ranging from 30-3000 ng/mL and to purified human alpha-1 acid glycoprotein (AAG) at concentrations ranging from 30-10000 ng/mL.

With `Cc1nccn1C[C@H]1CCc2c(c3cccc4c3n2CCC4)C1=O` [Cilansetron, (R)-(−)-4,5,6,8,9,10-hexahydro-10-[(2-methyl-1H-imidazol-1-yl)methyl]-11H-pyrido-[3,2,1-jk]-carbazol-11-one] the Apparent binding sites was 0.6 and the “Affinity constant (Ka)” value (human, purified aag) was 0.56 µM⁻¹.
